Laboratory results from the supplement of paper PMC8960247.
Structures can show the parent of a compound that is named as a salt. The data scatter; read single values as rough.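 The cells are immortalized human renal angiomyolipoma cells carrying an empty vector, so TSC2 stays lost. Viability was read by a luminescent ATP assay and normalized to vehicle-treated wells on each plate, in low-serum medium where TSC2-rescued cells do not grow.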

Test system: 621-102 (TSC2-deficient)
Experiment: relative viability vs DMSO (fraction); higher = less cytotoxic
Details: serum: 0.1% FBS, 72 h

SMILES | relative viability (0.0128 nM) | relative viability (0.064 nM) | relative viability (0.32 nM) | relative viability (1.6 nM) | relative viability (8 nM) | relative viability (40 nM) | relative viability (200 nM) | relative viability (1000 nM) | relative viability (5000 nM)
COCCOC(=O)C1=C(C)NC(C)=C(C(=O)OC/C=C/c2ccccc2)C1c1cccc([N+](=O)[O-])c1 (stereo not given) [Cilnidipine] | 0.616 | 0.724 | 0.727 | 0.73 | 0.645 | 0.731 | 0.745 | 0.732 | 0.768
COc1ccc([C@]2(C#N)CC[C@@H](C(=O)O)CC2)cc1OC1CCCC1 [Cilomilast] | 0.892 | 0.887 | 0.856 | 0.851 | 0.86 | 0.806 | 0.915 | 0.921 | 0.861
O=C1CCc2cc(OCCCCc3nnnn3C3CCCCC3)ccc2N1 [Cilostazol] | 1.42 | 1.39 | 1.58 | 1.4 | 0.798 | 0.871 | 1.08 | 1.53 | 1.46
CC(C)(Oc1ccc(C2CC2(Cl)Cl)cc1)C(=O)O (stereo not given) [Ciprofibrate] | 0.688 | 0.692 | 0.724 | 0.0997 | 0.795 | 0.768 | 0.813 | 0.924 | 0.771
Nc1nc(Cl)nc2c1ncn2[C@H]1C[C@H](O)[C@@H](CO)O1 [Cladribine] | 0.989 | 0.991 | 1.08 | 0.983 | 0.697 | 0.709 | 0.462 | 0.0663 | 0.0103
CC[C@H]1OC(=O)[C@H](C)[C@@H](O[C@H]2C[C@@](C)(OC)[C@@H](O)[C@H](C)O2)[C@H](C)[C@@H](O[C@@H]2O[C@H](C)C[C@H](N(C)C)[C@H]2O)[C@](C)(OC)C[C@@H](C)C(=O)[C@H](C)[C@@H](O)[C@]1(C)O [Clarithromycin] | 0.928 | 0.926 | 0.896 | 0.861 | 0.856 | 0.76 | 0.765 | 0.621 | 0.735
CN1CCC[C@@H]1CCO[C@](C)(c1ccccc1)c1ccc(Cl)cc1 [Clemastine Fumarate] | 0.717 | 0.539 | 0.572 | 0.681 | 0.595 | 0.609 | 0.582 | 0.656 | 0.671
CCC(C)(Oc1ccc(C2(c3ccc(OC(C)(CC)C(=O)O)cc3)CCCCC2)cc1)C(=O)O (stereo not given) [Clinofibrate] | 0.681 | 0.767 | 0.706 | 0.76 | 0.709 | 0.938 | 0.729 | 0.691 | 0.73
Nc1nc(Cl)nc2c1ncn2[C@@H]1O[C@H](CO)[C@@H](O)[C@@H]1F [Clofarabine] | 0.786 | 0.797 | 0.782 | 0.404 | 0.795 | 0.458 | 0.0221 | 0.0155 | 0.0138
CCN(CC)CCOc1ccc(C(=C(Cl)c2ccccc2)c2ccccc2)cc1 [Clomifene citrate] | 0.757 | 0.801 | 0.667 | 0.741 | 0.713 | 0.7 | 0.447 | 0.0173 | 0.00963
CN(C)CCCN1c2ccccc2CCc2ccc(Cl)cc21 [Clomipramine HCl] | 0.807 | 0.744 | 0.805 | 0.856 | 0.81 | 0.716 | 0.784 | 0.672 | 0.521
Clc1cccc(Cl)c1NC1=NCCN1 [Clonidine HCl] | 0.26 | 0.178 | 0.24 | 0.836 | 0.835 | 0.164 | 0.296 | 0.187 | 0.478
COC(=O)[C@H](c1ccccc1Cl)N1CCc2sccc2C1 [Clopidogrel] | 0.725 | 0.613 | 0.556 | 0.57 | 0.563 | 0.53 | 0.464 | 0.502 | 0.594
Nc1cc(C(Cl)=C(Cl)Cl)c(S(N)(=O)=O)cc1S(N)(=O)=O [Clorsulon] | 0.452 | 0.688 | 0.906 | 0.88 | 0.722 | 0.694 | 0.916 | 0.474 | 0.604
CN1CCN(C2=Nc3cc(Cl)ccc3Nc3ccccc32)CC1 [Clozapine] | 0.78 | 0.783 | 0.716 | 0.668 | 0.647 | 0.618 | 0.611 | 0.794 | 0.705
